Laboratory results taken from publication PMC9652331.
Results are given in words; binding and its absence hold for the method and conditions named. Some binding calls cover weakened binding; strength is not graded here. Where a sequence is shown, tags or fusion partners need not be part of it. Blank lines part the entries; values can stand above or below the binder they belong to.

Chains of the proteins cited; added tags and fusions are not shown.
UniProt Q69YN4: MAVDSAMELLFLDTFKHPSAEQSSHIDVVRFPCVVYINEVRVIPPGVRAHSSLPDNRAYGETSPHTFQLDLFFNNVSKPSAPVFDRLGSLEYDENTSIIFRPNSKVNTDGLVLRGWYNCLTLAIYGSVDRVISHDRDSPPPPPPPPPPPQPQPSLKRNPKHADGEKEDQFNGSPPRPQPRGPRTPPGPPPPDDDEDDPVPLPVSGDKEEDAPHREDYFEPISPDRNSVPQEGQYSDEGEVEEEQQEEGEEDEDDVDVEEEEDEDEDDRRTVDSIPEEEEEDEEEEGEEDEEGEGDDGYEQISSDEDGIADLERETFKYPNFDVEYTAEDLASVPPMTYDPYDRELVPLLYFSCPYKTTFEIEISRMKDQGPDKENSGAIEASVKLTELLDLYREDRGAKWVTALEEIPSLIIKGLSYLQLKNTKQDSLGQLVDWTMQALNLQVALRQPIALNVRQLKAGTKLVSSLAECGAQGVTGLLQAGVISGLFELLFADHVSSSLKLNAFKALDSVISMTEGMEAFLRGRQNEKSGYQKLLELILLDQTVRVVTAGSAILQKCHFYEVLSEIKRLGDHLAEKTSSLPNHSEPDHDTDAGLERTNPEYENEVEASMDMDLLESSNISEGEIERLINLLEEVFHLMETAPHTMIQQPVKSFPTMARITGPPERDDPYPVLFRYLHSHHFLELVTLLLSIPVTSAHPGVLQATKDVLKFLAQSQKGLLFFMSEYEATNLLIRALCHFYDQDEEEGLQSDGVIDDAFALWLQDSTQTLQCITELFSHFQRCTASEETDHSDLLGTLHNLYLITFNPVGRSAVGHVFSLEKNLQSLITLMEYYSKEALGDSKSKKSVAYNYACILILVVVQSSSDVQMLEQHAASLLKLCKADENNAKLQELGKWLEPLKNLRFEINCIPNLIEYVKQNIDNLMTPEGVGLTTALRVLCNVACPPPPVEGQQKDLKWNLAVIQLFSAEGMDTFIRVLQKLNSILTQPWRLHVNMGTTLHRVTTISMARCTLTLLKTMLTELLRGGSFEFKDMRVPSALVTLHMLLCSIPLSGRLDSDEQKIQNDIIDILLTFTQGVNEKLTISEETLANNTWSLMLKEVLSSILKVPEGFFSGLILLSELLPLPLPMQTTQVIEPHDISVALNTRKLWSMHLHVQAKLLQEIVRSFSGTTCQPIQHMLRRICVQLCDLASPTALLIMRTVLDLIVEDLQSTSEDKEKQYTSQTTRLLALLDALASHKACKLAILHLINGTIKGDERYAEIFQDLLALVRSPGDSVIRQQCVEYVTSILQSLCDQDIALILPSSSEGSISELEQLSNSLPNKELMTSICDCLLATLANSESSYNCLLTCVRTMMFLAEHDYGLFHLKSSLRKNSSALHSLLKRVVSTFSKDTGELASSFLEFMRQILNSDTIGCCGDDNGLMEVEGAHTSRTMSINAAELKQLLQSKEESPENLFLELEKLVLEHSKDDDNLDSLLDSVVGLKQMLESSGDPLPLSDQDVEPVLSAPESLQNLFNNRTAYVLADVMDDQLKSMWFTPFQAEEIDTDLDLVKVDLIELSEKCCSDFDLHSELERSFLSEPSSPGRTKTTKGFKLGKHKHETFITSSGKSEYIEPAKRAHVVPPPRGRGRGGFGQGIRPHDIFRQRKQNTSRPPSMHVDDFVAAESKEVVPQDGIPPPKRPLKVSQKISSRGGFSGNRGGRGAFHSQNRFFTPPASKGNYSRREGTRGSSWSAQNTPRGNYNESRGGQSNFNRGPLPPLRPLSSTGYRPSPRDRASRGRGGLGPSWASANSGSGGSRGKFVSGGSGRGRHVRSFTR

How the values were obtained:
[1] = target: KIAA1429 (VIRMA), full length, N-6× His-VIRMA (human) (UniProt Q69YN4); assay: SEC; MACOM components co-expressed in High Five cells; HWVZ, HWV, WVZ and WV complexes purified by tandem affinity (Ni-NTA and STREP beads), then Superose 6 Increase 10/300 GL in 100 mM KCl, 20 mM HEPES pH 7.5, 10% glycerol, 1 mM DTT; SDS-PAGE of the complexes; both purified
[2] = target: T1, Zinc finger CCCH domain-containing protein 13 (ZC3H13) (1106–1668), N-Twin-Strep-tag-ZC3H13 (1106–1668) (human) (UniProt Q5T200); assay: as above
T1 sequence: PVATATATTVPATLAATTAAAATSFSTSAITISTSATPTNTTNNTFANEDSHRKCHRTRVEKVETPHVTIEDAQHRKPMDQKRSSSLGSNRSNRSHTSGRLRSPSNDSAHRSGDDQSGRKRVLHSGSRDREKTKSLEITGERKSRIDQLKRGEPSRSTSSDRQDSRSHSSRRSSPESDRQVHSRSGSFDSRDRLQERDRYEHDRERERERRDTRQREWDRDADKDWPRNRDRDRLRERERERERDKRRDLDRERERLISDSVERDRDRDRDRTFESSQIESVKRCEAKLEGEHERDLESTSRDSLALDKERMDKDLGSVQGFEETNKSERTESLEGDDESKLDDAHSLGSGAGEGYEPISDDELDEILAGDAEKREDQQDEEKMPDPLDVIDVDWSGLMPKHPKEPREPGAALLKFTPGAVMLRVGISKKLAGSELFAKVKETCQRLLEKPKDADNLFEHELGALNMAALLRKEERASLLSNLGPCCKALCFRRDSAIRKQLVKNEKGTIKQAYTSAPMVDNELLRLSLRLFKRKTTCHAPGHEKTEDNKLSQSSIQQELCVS

[3] = target: T2, Wilms' tumor 1-associated protein (WTAP), full length, N-6× His-WTAP (human) (UniProt Q15007); assay: as above
T2 sequence: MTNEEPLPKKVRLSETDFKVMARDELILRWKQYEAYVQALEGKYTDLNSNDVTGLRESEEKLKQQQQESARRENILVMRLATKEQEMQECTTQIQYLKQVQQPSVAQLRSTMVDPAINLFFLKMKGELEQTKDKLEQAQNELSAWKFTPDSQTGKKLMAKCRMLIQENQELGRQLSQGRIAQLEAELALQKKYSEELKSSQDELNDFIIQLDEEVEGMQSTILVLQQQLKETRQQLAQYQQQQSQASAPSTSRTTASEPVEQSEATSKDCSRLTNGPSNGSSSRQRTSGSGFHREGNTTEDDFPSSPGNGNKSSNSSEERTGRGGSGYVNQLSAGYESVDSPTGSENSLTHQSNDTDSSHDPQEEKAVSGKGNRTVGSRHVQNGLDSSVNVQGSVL

[4] = target: KIAA1429 (VIRMA), full length, N-6× His-VIRMA (human) (UniProt Q69YN4); assay: cross-linking; BS3 XL-MS of purified MACOM (Fig. S4a, b): 0.5 mM BS3, 50 mM HEPES pH 7.5, 100 mM KCl, 5% glycerol, 25 °C, 2 h; pLink2; both purified
[5] = target: T1, Zinc finger CCCH domain-containing protein 13 (ZC3H13) (1106–1668), N-Twin-Strep-tag-ZC3H13 (1106–1668) (human); assay: as above
[6] = target: T2, Wilms' tumor 1-associated protein (WTAP), full length, N-6× His-WTAP (human); assay: as above
[7] = target: T3, E3 ubiquitin ligase CBLL1 (HAKAI), full length, untagged (human) (UniProt Q75N03); assay: cross-linking; BS3 XL-MS of purified MACOM with MAC (Fig. S4c, d): 0.5 mM BS3, 50 mM HEPES pH 7.5, 100 mM KCl, 5% glycerol, 25 °C, 2 h; pLink2; both purified
T3 sequence: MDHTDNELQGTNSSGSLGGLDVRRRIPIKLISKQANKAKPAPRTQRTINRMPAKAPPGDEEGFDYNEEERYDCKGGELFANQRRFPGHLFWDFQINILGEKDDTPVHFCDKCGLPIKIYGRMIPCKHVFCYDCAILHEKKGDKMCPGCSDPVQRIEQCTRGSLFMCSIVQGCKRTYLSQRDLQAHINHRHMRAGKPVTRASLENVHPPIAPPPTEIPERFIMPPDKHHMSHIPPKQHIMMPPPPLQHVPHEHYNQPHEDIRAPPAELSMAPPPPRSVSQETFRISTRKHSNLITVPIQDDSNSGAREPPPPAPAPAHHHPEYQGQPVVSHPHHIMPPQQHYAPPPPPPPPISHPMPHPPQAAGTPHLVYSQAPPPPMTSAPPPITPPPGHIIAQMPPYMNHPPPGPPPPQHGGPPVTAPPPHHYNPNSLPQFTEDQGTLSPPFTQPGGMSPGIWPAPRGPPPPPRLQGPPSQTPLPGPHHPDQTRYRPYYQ

[8] = target: T1, Zinc finger CCCH domain-containing protein 13 (ZC3H13) (1106–1668), N-Twin-Strep-tag-ZC3H13 (1106–1668) (human); assay: as above
[9] = target: KIAA1429 (VIRMA), full length, N-6× His-VIRMA (human) (UniProt Q69YN4); assay: cryo-EM structure; HWVZ complex cross-linked with 0.5 mM BS3 (2 h, 25 °C), glycerol density gradient; 3.0 Å map, de novo model; both purified

binding [1]: binds
binding [2]: binds
binding [3]: binds
binding [4]: binds
binding [5]: binds
binding [6]: binds
B1: E3 ubiquitin ligase CBLL1 (HAKAI), full length, untagged (protein, UniProt Q75N03 1-491)
chain: T3 sequence

binding [7]: binds
binding [8]: binds
B2: methyltransferase-like 14 (METTL14), full length (protein, UniProt Q9HCE5 1-456)
chain: MDSRLQEIRERQKLRRQLLAQQLGAESADSIGAVLNSKDEQREIAETRETCRASYDTSAPNAKRKYLDEGETDEDKMEEYKDELEMQQDEENLPYEEEIYKDSSTFLKGTQSLNPHNDYCQHFVDTGHRPQNFIRDVGLADRFEEYPKLRELIRLKDELIAKSNTPPMYLQADIEAFDIRELTPKFDVILLEPPLEEYYRETGITANEKCWTWDDIMKLEIDEIAAPRSFIFLWCGSGEGLDLGRVCLRKWGYRRCEDICWIKTNKNNPGKTKTLDPKAVFQRTKEHCLMGIKGTVKRSTDGDFIHANVDIDLIITEEPEIGNIEKPVEIFHIIEHFCLGRRRLHLFGRDSTIRPGWLTVGPTLTNSNYNAETYASYFSAPNSYLTGCTEEIERLRPKSPPPKSKSDRGGGAPRGGGRGGTSAGRGRERNRSNFRGERGGFRGGRGGAHRGGFPPR

binding [1]: binds
binding [9]: binds
B3: Zinc finger CCCH domain-containing protein 13 (ZC3H13) (1106–1668), N-Twin-Strep-tag-ZC3H13 (1106–1668) (domain or fragment, UniProt Q5T200 1106-1668)
chain: T1 sequence
